Data as given in PubChem BioAssay AID1508588 (Peter MacCallum Cancer Centre, 2020).
Purpose: 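Which gene losses make BRAF-mutant melanoma cells more responsive to vemurafenib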 (primary screen). Cell system: human WM266.4 melanoma cells (BRAF V600 mutant). Reagents: siRNA pool against human genes, 40 nM. Duration: 96 h from transfection to read-out. Conditions: vemurafenib 300 nM (about IC25), added 48 h after transfection, for 48 h; comparison arm got DMSO vehicle only. Measured: 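Ratios to non-targeting siRNA for cell gain, counted as DAPI nuclei after minus before drug and averaged over two replicates, and for absorbance-read medium lactate per cell; both binned into fold-change classes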. Scale: cell gain with vemurafenib: higher = more cell gain than with non-targeting siRNA; lactate per cell with vemurafenib: higher = more lactate made per cell. Active means: 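a knock-down counts as enhancing when its fold-change classes with vehicle and with vemurafenib, taken together, show a stronger drug effect on cell gain or lactate per cell; exact class pairs not stated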. Calls: active = enhances vemurafenib effect; inactive = no enhancement seen.
In all, the deposit lists about 18,000 reagents; this is an unselected part. In the full data, 790 (4.4%) are marked active. 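Calls rest on a combination of fold-change classes in drug and vehicle arms, not all shown here.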

The first 3 records, ahead of the listing:
no.	gene symbol	cell gain with vemurafenib	lactate per cell with vemurafenib	activity call
1	CRISPLD2 (cysteine rich secretory protein LCCL domain containing 2)	0.11	1.27	inactive
2	SEPTIN11 (septin 11)	0.48	0.77	inactive
3	RBM28 (RNA binding motif protein 28)	0.52	0.9	inactive

The list itself, from the start:
no.	gene symbol	cell gain with vemurafenib	lactate per cell with vemurafenib	activity call
1	CRISPLD2 (cysteine rich secretory protein LCCL domain containing 2)	0.11	1.27	inactive
2	SEPTIN11 (septin 11)	0.48	0.77	inactive
3	RBM28 (RNA binding motif protein 28)	0.52	0.9	inactive
4	CDH19 (cadherin 19)	0.44	0.67	inactive
5	ATP10B (ATPase phospholipid transporting 10B (putative))	0.76	0.52	inactive
6	PAXX (PAXX non-homologous end joining factor)	0.47	1.07	inactive
7	H1-10 (H1.10 linker histone)	0.25	2.06	inactive
8	SARNP (SAP domain containing ribonucleoprotein)	0.36	0.63	inactive
9	RALY (RALY heterogeneous nuclear ribonucleoprotein)	0.09	3.1	inactive
10	ATP13A2 (ATPase cation transporting 13A2)	0.73	1.11	inactive
11	MXRA5 (matrix remodeling associated 5)	0.94	0.54	inactive
12	DAG1 (dystroglycan 1)	0.83	0.54	inactive
13	MARCHF6 (membrane associated ring-CH-type finger 6)	1.17	0.65	inactive
14	RPL27A (ribosomal protein L27a)	-0.02	1.65	inactive
15	SHCBP1 (SHC binding and spindle associated 1)	0.44	1.46	inactive
16	ST8SIA2 (ST8 alpha-N-acetyl-neuraminide alpha-2,8-sialyltransferase 2)	0.63	1.14	inactive
17	PGAM4 (phosphoglycerate mutase family member 4)	0.39	1.62	inactive
18	SLC26A4	1.11	0.53	inactive
19	EDAR (ectodysplasin A receptor)	1.01	0.82	inactive
20	RHBG (Rh family B glycoprotein)	0.05	2.22	inactive
21	PHACTR4 (phosphatase and actin regulator 4)	0.92	0.78	inactive
22	MAGEA10 (MAGE family member A10)	0.43	0.5	inactive
23	AOC1 (amine oxidase copper containing 1)	0.73	1.09	inactive
24	CT47A6 (cancer/testis antigen family 47 member A6)	1.01	0.41	active
25	HHATL (hedgehog acyltransferase like)	0.35	0.82	inactive
26	CSF3 (colony stimulating factor 3)	0.63	1.02	inactive
27	TET1 (tet methylcytosine dioxygenase 1)	0.63	0.8	inactive
28	SLC17A1	0.01	1.5	inactive
29	PRELID3B (PRELI domain containing 3B)	0.28	1.08	inactive
30	PRMT2 (protein arginine methyltransferase 2)	0.31	0.84	inactive
31	TP73 (tumor protein p73)	0.97	0.6	inactive
32	NUDC (nuclear distribution C, dynein complex regulator)	0.84	1.13	inactive
33	RSL1D1 (ribosomal L1 domain containing 1)	0.39	1.88	inactive
34	SLC25A10	0.68	0.83	inactive
35	MOK (MOK protein kinase)	0.34	1.76	inactive
36	COL4A3 (collagen type IV alpha 3 chain)	1.08	0.69	inactive
37	MBD2 (methyl-CpG binding domain protein 2)	0.12	3.06	inactive
38	ARL8B (ARF like GTPase 8B)	0.54	1.29	inactive
39	CCDC17 (coiled-coil domain containing 17)	0.27	1.02	inactive
40	CPXM1 (carboxypeptidase X, M14 family member 1)	0.35	0.37	inactive
41	TRIM51BP (tripartite motif-containing 51B, pseudogene)	0.99	0.86	inactive
42	GPS2 (G protein pathway suppressor 2)	1.06	1.12	inactive
43	PATZ1 (POZ/BTB and AT hook containing zinc finger 1)	0.79	0.61	inactive
44	ENTPD2 (ectonucleoside triphosphate diphosphohydrolase 2)	0.28	0.6	inactive
45	EPHA6 (EPH receptor A6)	-0.05	1	inactive
46	NR2F2 (nuclear receptor subfamily 2 group F member 2)	0.62	0.92	inactive
47	F13B (coagulation factor XIII B chain)	0.91	0.74	inactive
48	PKNOX1 (PBX/knotted 1 homeobox 1)	1.08	0.92	inactive
49	SEMA4G (semaphorin 4G)	-0.06	6.87	inactive
50	CCL22 (C-C motif chemokine ligand 22)	0.43	0.75	inactive
51	YLPM1 (YLP motif containing 1)	1.01	1.03	inactive
52	TIGD1 (tigger transposable element derived 1)	0.88	0.49	active
53	RBM19 (RNA binding motif protein 19)	0.39	0.7	inactive
54	OR51V1 (olfactory receptor family 51 subfamily V member 1)	0.39	1.29	inactive
55	KLHDC1 (kelch domain containing 1)	0.63	0.43	active
56	NSG1 (neuronal vesicle trafficking associated 1)	0.51	1.1	inactive
57	PMEPA1 (prostate transmembrane protein, androgen induced 1)	0.33	0.7	inactive
